Structures can show the parent of a compound that is named as a salt. Some of these results come from one statement about several compounds together.
molecular target: T1, human prostanoid EP1 receptor (Homo sapiens, UniProt P34995); experiment: Binding assay for the human prostanoid EP1 receptor (competition with [3H]-PGE2); details: [3H]-PGE2 competition, human EP1, CHO-K1 membranes; averages of a number of experiments
T1 construct: expressed in transfected cells; host or cells: CHO-K1 (membrane fraction)
T1 sequence (P34995 1-402): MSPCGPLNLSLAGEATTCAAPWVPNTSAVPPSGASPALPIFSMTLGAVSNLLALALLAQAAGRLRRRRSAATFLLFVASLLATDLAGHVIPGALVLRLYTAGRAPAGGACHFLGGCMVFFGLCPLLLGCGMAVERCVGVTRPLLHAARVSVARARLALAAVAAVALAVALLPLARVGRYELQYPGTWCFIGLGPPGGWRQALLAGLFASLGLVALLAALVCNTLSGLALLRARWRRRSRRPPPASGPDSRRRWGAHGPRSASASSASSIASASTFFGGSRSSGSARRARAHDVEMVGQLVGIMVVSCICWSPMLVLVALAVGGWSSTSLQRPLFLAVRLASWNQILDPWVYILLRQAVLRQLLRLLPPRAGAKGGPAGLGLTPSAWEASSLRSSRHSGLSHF
Protocol: Competition assay using [^3H]-PGE2.
Compound potencies are determined using a radioligand binding assay. In this assay compound potencies are determined from their ability to compete with tritiated prostaglandin E2 ([^3H]-PGE2) for binding to the human EP1 receptor.
This assay utilises Chinese hamster ovary-K1 (CHO-K1) cells into which a stable vector containing the EP1 cDNA has previously been transfected. Cells are cultured in suitable flasks containing culture medium such as DMEM:F-12 supplemented with 10% v/v foetal calf serum, 2 mM L-glutamine, 0.25 mg/ml geneticin, 10 μg/ml puromycin and 10 μM indomethacin.
Cells are detached from the culture flasks by incubation in calcium and magnesium free phosphate buffered saline containing 1 mM disodium ethylenediaminetetraacetic acid (Na2EDTA) and 10 μM indomethacin for 5 min. The cells are isolated by centrifugation at 250×g for 5mins and suspended in an ice cold buffer such as 50 mM Tris, 1 mM Na2EDTA, 140 mM NaCl, 10 μM indomethacin (pH 7.4). The cells are homogenised using a Polytron tissue disrupter (2×10 s burst at full setting), centrifuged at 48,000×g for 20mins and the pellet containing the membrane fraction is washed (optional) three times by suspension and centrifugation at 48,000×g for 20mins. The final membrane pellet is suspended in an assay buffer such as 10 mM 2-[N-morpholino]ethanesulphonic acid, 1 mM Na2EDTA, 10 mM MgCl2 (pH 6). Aliquots are frozen at −80° C. until required.
For the binding assay the cell membranes, competing compounds and [^3H]-PGE2 (3 nM final assay concentration) are incubated in a final volume of 100 μl for 30 min at 30° C. All reagents are prepared in assay buffer. Reactions are terminated by rapid vacuum filtration over GF/B filters using a Brandell cell harvester. The filters are washed with ice cold assay buffer, dried and the radioactivity retained on the filters is measured by liquid scintillation counting in Packard TopCount scintillation counter.
The data are analysed using non linear curve fitting techniques to determine the concentration of compound producing 50% inhibition of specific binding (IC50).

pIC50 value, ≥ 6:
COc1ccc2[nH]c(-c3cccc(Cc4cc(Cl)ccc4OCc4ccccc4)n3)nc2c1 [Example 31, 2-[6-({5-Chloro-2-[(phenylmethyl)oxy]phenyl}methyl)-2-pyridinyl]-5-(methyloxy)-1H-benzimidazolehydrochloride]
Clc1ccc(OCc2ccccc2)c(Cc2cccc(-c3nc4ncccc4[nH]3)n2)c1 [Example 30, 2-[6-({5-Chloro-2-[(phenylmethyl)oxy]phenyl}methyl)-2-pyridinyl]-1H-imidazo[4,5-b]pyridinehydrochloride]
CC(C)NC(=O)c1cccc(Cc2cc(Cl)ccc2OCc2ccccc2)n1 [Example 9, 6-({5-Chloro-2-[(phenylmethyl)oxy]phenyl}methyl)-N-(1-methylethyl)-2-pyridinecarboxamide]
Clc1ccc(OCc2ccccc2)c(Cc2cccc(-c3ncc[nH]3)n2)c1 [Example 43, 2-({5-Chloro-2-[(phenylmethyl)oxy]phenyl}methyl)-6-(1H-imidazol-2-yl)pyridine Hydrochloride]
CC(C)(C)OC(=O)Nc1cccc(Cc2cc(Cl)ccc2OCc2ccc(Cl)cc2F)n1 [Example 60, 1,1-Dimethylethyl {6-[(5-chloro-2-{[(4-chloro-2-fluoronhenyl)methyl]oxy}phenyl)methyl]-2-pyridinyl}carbamate]
NC(=O)c1cccc(Cc2cc(Cl)ccc2OCc2ccc(Cl)cc2F)n1 [Example 63, 6-[(5-Chloro-2-{[(4-chloro-2-fluorophenyl)methyl]oxy}phenyl)methyl]-2-pyridinecarboxamide]
O=C(Nc1cccc(Cc2cc(Cl)ccc2OCc2ccccc2)n1)C1CCCO1 (centres unmarked) [Example 17, N-[6-({5-Chloro-2-[(phenylmethyl)oxy]phenyl}methyl)-2-pyridinyl]tetrahydro-2-furancarboxamide]
OC(c1cccc(Cc2cc(Cl)ccc2OCc2ccc(Cl)cc2F)n1)C(F)(F)F (centres unmarked) [Example 59, 1-{6-[(5-Chloro-2-{[(4-chloro-2-fluorophenyl)methyl]oxy}phenyl)methyl]-2-pyridinyl}-2,2,2-trifluoroethanol]
CC(C)COc1ccc(Cl)cc1Cc1cccc(-c2nc3ccc(CN4CCCCC4)cc3[nH]2)n1 [Example 50, 2-[6-({5-Chloro-2-[(2-methylpropyl)oxy]phenyl}methyl)-2-pyridinyl]-5-(1-piperidinylmethyl)-1H-benzimidazole hydrochloride]
O=C(Nc1ccc(CN2CCCCC2)cc1)c1cccc(Cc2cc(Cl)ccc2OCc2ccc(Cl)cc2F)n1 [Example 55, 6-[(5-Chloro-2-{[(4-chloro-2-fluorophenyl)methyl]oxy}phenyl)methyl]-N-[4-(1-piperidinylmethyl)phenyl]-2-pyridinecarboxamide]
Clc1ccc(OCc2ccccc2)c(Cc2cccc(-c3nc4ccccc4[nH]3)n2)c1 [Example 34, 2-[6-({5-Chloro-2-[(phenylmethyl)oxy]phenyl}methyl)-2-pyridinyl]-1H-benzimidazole hydrochloride]
CC(C)COc1ccc(Cl)cc1Cc1cccc(-c2nc3nccnc3[nH]2)n1 [Example 22, 2-[6-({5-Chloro-2-[(2-methylpropyl)oxy]phenyl}methyl)-2-pyridinyl]-1H-imidazo[4,5-b]pyrazine hydrochloride]
Fc1ccc2[nH]c(-c3cccc(Cc4cc(Cl)ccc4OCc4ccccc4)n3)nc2c1 [Example 36, 2-[6-({5-Chloro-2-[(phenylmethyl)oxy]phenyl}methyl)-2-pyridinyl]-5-fluoro-1H-benzimidazolehydrochloride]
CC(C)COc1ccc(Cl)cc1Cc1cccc(NC(=O)c2ccc(CN3CCN(C)CC3)cc2)n1 [Example 48]
CN(C)c1ccc2nc(-c3cccc(Cc4cc(Cl)ccc4OCc4ccccc4)n3)[nH]c2c1 [Example 27, 2-[6-({5-Chloro-2-[(phenylmethyl)oxy]phenyl}methyl)-2-pyridinyl]-N,N-dimethyl-1H-benzimidazol-5-aminehydrochloride]
Clc1ccc(OCc2ccccc2)c(Cc2cccc(-c3nc4cc(Cl)ccc4[nH]3)n2)c1 [Example 35, 5-Chloro-2-[6-({5-Chloro-2-[(phenylmethyl)oxy]phenyl}methyl)-2-pyridinyl]-1H-benzimidazole hydrochloride]
Fc1cc(Cl)ccc1COc1ccc(Cl)cc1Cc1cccc(-c2nc3cncnc3[nH]2)n1 [Example 20, 8-{6-[(5-Chloro-2-{[(4-chloro-2-fluorophenyl)methyl]oxy}phenyl)methyl]-2-pyridinyl}-1H-purinehydrochloride]
CC(C)(C)OC(=O)Nc1cccc(Cc2cc(Cl)ccc2OCc2ccccc2)n1 [Example 1, 1,1-Dimethylethyl [6-({5-chloro-2-[(phenylmethyl)oxy]phenyl}methyl)-2-pyridinyl]carbamate]
CC(C)COc1ccc(Cl)cc1Cc1cccc(NC(=O)c2ccc(CN3CCCC3)cc2)n1 [Example 46, N-[6-({5-Chloro-2-[(2-methylpropyl)oxy]phenyl}methyl)-2-pyridinyl]-4-(1-pyrrolidinylmethyl)benzamidehydrochloride]
Fc1cccc2[nH]c(-c3cccc(Cc4cc(Cl)ccc4OCc4ccccc4)n3)nc12 [Example 32, 2-[6-({5-Chloro-2-[(phenylmethyl)oxy]phenyl}methyl)-2-pyridinyl]-4-fluoro-1H-benzimidazolehydrochioride]
CC(C)COc1ccc(Cl)cc1Cc1cccc(NC(=O)c2ccc(CO)cc2)n1 [Example 62, N-[6-({5-Chloro-2-[(2-methylpropyl)oxy]phenyl}methyl)-2-pyridinyl]-4-(hydroxymethyl)benzamide]
O=C(Nc1cccc(Cc2cc(Cl)ccc2OCc2ccccc2)n1)C1CCOCC1 [Example 14, N-[6-({5-Chloro-2-[(phenylmethyl)oxy]phenyl}methyl)-2-pyridinyl]tetrahydro-2H-pyran-4-carboxamide]
CC(C)COc1ccc(Cl)cc1Cc1cccc(NC(=O)c2ccc(CN3CCCCC3)cc2)n1 [Example 47, N-[6-({5-Chloro-2-[(2-methylpropyl)oxy]phenyl}methyl)-2-pyridinyl]-4-(1-piperidinylmethyl)benzamidehydrochloride]
CC(C)(C)NC(=O)c1cccc(Cc2cc(Cl)ccc2OCc2ccccc2)n1 [Example 8, 6-({5-Chloro-2-[(phenylmethyl)oxy]phenyl}methyl)-N-(1,1-dimethylethyl)-2-pyridinecarboxamide]
O=C(Nc1ccc(CN2CCCC2)cc1)c1cccc(Cc2cc(Cl)ccc2OCc2ccc(Cl)cc2F)n1 [Example 56, 6-[(5-Chloro-2-{[(4-chloro-2-fluorophenyl)methyl]oxy}phenyl)methyl]-N-[4-(1-pyrrolidinylmethyl)phenyl]-2-pyridinecarboxamide]
O=C(Cc1ccccc1)Nc1cccc(Cc2cc(Cl)ccc2OCc2ccccc2)n1 [Example 2, N-[6-({5-Chloro-2-[(phenylmethyl)oxy]phenyl}methyl)-2-pyridinyl]-2-phenylacetamide]

Reference: US20090099177A1, “PYRIDYL COMPOUNDS” (priority 2006, published 2009)
